For the assay, the target named is CTLA-4 (human (endogenous in primary T cells)) (UniProt P16410). In words: co-IP; anti-CTLA-4 antibody coupled to agarose beads; lysates of CD3/CD28-activated T cells from healthy donors (Octyl buffer) after reversible cross-linking with DSP; 4 °C overnight; immunoblot of NBEAL2, LRBA and CTLA-4; unstimulated T cells as negative control. In general terms: In western blotting, separated proteins are transferred to a membrane and probed.

Amino acid sequences for entries named in this document (tags omitted). Residues count along the entry.
UniProt P16410, residues 36-223: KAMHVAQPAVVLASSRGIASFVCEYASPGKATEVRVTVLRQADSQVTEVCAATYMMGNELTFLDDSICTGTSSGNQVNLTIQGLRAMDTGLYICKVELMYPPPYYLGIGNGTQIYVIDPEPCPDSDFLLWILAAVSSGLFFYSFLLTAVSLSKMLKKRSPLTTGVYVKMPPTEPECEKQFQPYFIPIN
UniProt P50851: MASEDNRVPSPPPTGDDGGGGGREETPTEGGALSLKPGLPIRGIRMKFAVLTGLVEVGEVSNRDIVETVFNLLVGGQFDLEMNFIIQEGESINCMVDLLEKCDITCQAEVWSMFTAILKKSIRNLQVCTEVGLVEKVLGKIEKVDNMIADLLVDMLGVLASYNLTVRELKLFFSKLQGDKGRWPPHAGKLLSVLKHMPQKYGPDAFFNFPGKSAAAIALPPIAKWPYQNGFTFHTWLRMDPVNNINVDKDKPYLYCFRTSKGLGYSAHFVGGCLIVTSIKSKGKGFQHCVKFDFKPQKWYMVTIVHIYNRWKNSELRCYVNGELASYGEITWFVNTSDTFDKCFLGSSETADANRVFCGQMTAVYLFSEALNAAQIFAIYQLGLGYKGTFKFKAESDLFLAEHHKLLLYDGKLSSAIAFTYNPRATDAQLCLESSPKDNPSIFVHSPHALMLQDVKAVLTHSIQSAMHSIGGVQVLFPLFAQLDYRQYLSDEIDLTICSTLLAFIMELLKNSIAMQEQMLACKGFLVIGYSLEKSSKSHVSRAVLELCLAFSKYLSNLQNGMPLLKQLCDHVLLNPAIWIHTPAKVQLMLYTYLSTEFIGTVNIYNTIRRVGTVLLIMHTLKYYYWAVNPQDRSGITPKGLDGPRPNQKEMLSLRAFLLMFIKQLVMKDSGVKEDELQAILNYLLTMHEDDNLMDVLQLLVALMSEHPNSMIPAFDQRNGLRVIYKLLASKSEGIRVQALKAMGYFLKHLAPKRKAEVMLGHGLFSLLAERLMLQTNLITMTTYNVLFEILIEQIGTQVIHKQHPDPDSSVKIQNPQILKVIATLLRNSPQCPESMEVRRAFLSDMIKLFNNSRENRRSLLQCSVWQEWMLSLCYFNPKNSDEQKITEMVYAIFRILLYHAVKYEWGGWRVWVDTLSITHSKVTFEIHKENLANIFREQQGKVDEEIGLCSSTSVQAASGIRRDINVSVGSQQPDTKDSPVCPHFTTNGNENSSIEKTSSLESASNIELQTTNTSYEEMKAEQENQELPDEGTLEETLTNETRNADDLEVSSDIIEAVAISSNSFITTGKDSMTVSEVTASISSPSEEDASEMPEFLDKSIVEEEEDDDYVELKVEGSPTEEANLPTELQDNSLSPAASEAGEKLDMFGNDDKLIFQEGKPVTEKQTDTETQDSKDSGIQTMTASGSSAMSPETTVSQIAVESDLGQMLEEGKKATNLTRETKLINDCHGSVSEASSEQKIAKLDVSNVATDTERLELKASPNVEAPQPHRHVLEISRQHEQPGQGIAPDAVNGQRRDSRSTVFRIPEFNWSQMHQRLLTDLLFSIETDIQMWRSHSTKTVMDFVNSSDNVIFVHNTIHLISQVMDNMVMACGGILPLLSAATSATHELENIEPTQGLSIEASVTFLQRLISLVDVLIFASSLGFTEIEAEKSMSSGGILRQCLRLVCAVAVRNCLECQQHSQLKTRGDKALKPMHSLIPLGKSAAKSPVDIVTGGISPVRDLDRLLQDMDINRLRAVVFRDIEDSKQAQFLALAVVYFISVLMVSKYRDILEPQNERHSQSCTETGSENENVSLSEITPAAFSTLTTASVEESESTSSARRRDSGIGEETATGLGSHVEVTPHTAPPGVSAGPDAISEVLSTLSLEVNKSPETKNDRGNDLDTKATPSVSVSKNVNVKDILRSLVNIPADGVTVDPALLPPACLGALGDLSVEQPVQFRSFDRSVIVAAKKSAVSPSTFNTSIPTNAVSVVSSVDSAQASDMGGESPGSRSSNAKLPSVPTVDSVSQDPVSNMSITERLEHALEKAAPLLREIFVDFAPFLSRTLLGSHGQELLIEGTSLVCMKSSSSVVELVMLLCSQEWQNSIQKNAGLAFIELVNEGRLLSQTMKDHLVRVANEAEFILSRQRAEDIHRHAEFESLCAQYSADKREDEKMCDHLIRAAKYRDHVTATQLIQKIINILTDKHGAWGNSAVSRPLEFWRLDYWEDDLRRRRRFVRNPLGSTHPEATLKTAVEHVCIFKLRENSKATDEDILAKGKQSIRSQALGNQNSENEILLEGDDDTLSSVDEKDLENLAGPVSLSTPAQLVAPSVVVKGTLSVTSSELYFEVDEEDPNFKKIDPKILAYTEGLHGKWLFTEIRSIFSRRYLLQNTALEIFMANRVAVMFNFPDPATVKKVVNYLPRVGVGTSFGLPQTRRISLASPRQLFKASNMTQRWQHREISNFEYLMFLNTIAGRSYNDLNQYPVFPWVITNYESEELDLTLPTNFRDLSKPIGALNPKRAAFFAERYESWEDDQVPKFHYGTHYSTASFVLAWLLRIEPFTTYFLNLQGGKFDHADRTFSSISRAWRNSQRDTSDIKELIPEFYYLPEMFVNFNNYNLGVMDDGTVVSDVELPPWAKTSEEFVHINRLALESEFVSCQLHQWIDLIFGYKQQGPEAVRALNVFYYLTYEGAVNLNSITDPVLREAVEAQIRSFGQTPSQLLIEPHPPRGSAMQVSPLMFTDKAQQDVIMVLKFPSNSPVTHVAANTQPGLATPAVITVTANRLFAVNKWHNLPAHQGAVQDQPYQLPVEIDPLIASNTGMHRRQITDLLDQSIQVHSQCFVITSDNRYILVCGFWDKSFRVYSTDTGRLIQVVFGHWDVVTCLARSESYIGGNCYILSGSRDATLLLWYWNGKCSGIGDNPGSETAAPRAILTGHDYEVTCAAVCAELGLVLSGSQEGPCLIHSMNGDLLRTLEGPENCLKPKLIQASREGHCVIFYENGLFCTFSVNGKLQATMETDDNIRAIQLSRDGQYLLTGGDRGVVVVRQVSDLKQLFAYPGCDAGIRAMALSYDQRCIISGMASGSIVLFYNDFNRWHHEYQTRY
UniProt Q6ZNJ1: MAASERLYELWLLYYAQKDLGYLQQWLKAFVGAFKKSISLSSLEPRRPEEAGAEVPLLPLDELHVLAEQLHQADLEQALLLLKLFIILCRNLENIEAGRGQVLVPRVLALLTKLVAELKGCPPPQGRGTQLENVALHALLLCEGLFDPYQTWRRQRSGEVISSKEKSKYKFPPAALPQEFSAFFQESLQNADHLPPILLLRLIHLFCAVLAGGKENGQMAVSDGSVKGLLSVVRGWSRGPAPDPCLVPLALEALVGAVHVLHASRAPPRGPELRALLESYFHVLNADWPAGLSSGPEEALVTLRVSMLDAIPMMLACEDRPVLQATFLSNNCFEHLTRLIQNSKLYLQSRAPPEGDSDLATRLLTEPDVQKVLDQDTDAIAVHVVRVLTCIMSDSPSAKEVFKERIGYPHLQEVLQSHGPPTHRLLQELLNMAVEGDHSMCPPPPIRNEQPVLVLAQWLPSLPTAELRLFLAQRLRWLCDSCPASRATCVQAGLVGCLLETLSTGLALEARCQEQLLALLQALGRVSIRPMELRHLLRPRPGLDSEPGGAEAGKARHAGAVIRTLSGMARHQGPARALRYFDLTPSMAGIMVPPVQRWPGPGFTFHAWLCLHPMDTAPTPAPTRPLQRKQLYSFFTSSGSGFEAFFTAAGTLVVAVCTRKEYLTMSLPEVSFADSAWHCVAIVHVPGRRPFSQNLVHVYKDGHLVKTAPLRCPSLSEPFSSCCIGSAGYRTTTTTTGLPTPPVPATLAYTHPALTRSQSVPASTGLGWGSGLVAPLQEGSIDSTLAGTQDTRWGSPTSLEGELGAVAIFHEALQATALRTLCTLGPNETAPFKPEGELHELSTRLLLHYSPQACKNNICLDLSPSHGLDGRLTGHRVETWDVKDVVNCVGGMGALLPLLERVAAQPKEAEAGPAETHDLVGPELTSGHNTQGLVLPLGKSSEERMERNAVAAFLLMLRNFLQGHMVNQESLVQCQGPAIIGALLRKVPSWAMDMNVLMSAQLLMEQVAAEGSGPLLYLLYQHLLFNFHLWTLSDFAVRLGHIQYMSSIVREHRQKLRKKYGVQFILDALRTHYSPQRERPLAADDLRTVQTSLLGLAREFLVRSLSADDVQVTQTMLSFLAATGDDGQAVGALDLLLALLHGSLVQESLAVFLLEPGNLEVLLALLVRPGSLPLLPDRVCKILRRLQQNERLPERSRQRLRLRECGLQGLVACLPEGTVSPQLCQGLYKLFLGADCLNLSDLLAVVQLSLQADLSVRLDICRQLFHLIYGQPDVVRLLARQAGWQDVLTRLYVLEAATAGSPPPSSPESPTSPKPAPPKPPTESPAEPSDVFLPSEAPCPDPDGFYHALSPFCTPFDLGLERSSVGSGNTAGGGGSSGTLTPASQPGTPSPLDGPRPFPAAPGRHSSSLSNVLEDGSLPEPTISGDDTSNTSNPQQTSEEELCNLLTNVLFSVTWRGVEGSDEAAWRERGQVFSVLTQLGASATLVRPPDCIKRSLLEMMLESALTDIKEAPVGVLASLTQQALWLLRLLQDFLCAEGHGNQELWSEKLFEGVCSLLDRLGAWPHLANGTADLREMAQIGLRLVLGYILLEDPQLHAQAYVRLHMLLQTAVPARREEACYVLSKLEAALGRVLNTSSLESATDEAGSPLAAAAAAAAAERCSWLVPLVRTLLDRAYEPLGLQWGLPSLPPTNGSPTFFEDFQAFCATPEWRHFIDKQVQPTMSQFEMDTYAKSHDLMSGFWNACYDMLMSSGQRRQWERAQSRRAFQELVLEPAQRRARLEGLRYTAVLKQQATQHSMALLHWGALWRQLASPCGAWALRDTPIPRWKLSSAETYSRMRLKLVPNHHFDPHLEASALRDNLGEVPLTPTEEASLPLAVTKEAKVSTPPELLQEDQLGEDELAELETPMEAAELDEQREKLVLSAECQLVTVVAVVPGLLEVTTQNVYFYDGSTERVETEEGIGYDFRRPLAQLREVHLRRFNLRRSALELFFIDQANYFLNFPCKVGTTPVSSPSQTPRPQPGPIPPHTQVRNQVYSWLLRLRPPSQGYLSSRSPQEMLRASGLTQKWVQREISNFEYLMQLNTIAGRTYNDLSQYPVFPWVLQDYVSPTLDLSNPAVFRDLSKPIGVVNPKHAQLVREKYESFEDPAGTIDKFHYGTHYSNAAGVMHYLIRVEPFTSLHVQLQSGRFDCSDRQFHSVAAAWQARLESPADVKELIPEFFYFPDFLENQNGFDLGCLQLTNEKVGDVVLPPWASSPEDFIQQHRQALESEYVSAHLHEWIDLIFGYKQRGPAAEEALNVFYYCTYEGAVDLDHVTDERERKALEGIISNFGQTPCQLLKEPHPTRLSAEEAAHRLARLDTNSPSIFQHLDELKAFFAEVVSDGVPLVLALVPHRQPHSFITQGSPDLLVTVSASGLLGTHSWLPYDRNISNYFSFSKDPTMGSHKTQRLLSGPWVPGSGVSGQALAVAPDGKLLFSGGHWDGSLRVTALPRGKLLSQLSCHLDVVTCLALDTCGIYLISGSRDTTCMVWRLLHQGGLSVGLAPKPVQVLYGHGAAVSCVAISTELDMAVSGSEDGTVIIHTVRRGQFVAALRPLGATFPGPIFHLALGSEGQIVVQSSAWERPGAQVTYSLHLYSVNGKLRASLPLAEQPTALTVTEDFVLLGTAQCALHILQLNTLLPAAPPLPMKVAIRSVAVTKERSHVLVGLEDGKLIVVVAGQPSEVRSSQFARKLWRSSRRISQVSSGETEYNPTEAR

These results are taken from PMC10287742.

These are yes or no findings as the source states them, for the method shown. In cells and extracts the contact can be indirect. Some binding calls cover weakened binding; strength is not graded here.

Take “LPS-responsive beige-like anchor protein (LRBA) (from UniProt P50851 1-2863)”: the binding entry is on record as “binds”.

Take NBEAL2 (from UniProt Q6ZNJ1 1-2754): the binding result is given as “binds”.
